PMC7819943, “Rice protein-binding microarrays: a tool to detect cis-acting elements near promoter regions in rice”
Some of the results follow.

Chains of the proteins cited; added tags and fusions are not shown.
UniProt Q0JBA9, entry or part of it: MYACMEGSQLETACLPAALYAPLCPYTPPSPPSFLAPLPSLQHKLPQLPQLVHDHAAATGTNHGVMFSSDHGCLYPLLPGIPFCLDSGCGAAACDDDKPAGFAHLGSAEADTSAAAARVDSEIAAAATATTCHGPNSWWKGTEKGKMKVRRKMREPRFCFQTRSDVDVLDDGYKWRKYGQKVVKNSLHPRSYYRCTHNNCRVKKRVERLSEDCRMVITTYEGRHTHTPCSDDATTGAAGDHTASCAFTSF

Molecular target: OsWRKY34 (Oryza sativa, UniProt Q0JBA9 1-250)
Assay: protein-binding microarray (RPBM); PBS, 2% BSA, 51.3 ng/ul salmon testes DNA, 50 uM zinc acetate, 200 nM TF, 25 C, 1 h; high values mean tight binding
Details: protein: recombinant; tags: N-terminal polyhistidine and DsRed monomer fusion (pET32a); label: CyDye5-dUTP incorporated in the synthesized complementary strand; 3' TTTTT single-stranded linker to array surface; dsDNA, one strand shown
Procedure, shortened: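 Binding signal is reported as fluorescence intensity per feature (arbitrary units) from an Axon 4000B scanner. Incubation used 200 nM of each Ni–NTA-purified, N-terminally polyhistidine- and DsRed-fused transcription factor from E. coli BL21-CodonPlus on a double-stranded custom Agilent array for 1 h at 25 °C, with 50 µM zinc acetate in the buffer, followed by washing.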

| Sequence | binding signal |
| --- | --- |
| GGTCCTACGTCGTACTGCCAGAGATTAAACAAGTTCCCTACGGAGTCACCTAGTGCAG | 8820 fluorescence intensity (a.u.) |
| CTCCACCGCCGCATCTGTCGTCCGGCCGCGCATCCGTGCTCGGAGTCACCTAGTGCAG | 8600 fluorescence intensity (a.u.) |
| CTGATAACTTCCATCCAGTCCGCTCGAGATAACCGGTTTTCGGAGTCACCTAGTGCAG | 10700 fluorescence intensity (a.u.) |
| CACATATCGTTTAAATTTTCGACTTGACCGTTTTTCAATTCGGAGTCACCTAGTGCAG | 9550 fluorescence intensity (a.u.) |
| TATCTATCTATATCTCTCGCTTCCACTAACCTCAGCTTCTCGGAGTCACCTAGTGCAG | 8990 fluorescence intensity (a.u.) |
| AAATTAAATTTAAAAATTTAAATTTTGACTTTTTCTTGACCGGAGTCACCTAGTGCAG | 8250 fluorescence intensity (a.u.) |
| CTCGTTCCAAAGTCTTTCGTTTGATCTATCAAAAGGCATCCGGAGTCACCTAGTGCAG | 8580 fluorescence intensity (a.u.) |
| GTAGTGATTATACTGCACTTGCATTTTAAAATTTTTCATCCGGAGTCACCTAGTGCAG | 8090 fluorescence intensity (a.u.) |
| AAAATTAACTTCCCCATGCACACGCCATGCACAGTTTTAACGGAGTCACCTAGTGCAG | 8820 fluorescence intensity (a.u.) |
| CACCATTGCCGTCGCCGCCGCCGCCGCCGCCCGTCGTGGCCGGAGTCACCTAGTGCAG | 9360 fluorescence intensity (a.u.) |
| TTGTTGGTGTTTCCTCGTCCGCGTCGTCGGTTGCATTCTCCGGAGTCACCTAGTGCAG | 13600 fluorescence intensity (a.u.) |
| ATTGGTTTTCATTTGTGTGTTTCAGTTCAGTTTTTCCTAGCGGAGTCACCTAGTGCAG | 10400 fluorescence intensity (a.u.) |
| GTATCATCTTATACTAATATTATGTGGTCTTTGATAAAACCGGAGTCACCTAGTGCAG | 8560 fluorescence intensity (a.u.) |
| GTGGCGGTTAACTCCTTCTTACCCGTTCTTTCTCACGCTTCGGAGTCACCTAGTGCAG | 10200 fluorescence intensity (a.u.) |
| CCGCTGGCATCATCCCCGCTCGTCGCCGTCGTCGTGCTGCCGGAGTCACCTAGTGCAG | 8520 fluorescence intensity (a.u.) |
| GCATTCTGTGAACTCCTGAATTATGTTTTGCTGTTGTGAACGGAGTCACCTAGTGCAG | 10100 fluorescence intensity (a.u.) |
| GTTGTGTTTTTGTCAAAGTTCGTTCGCTTCAGCCTTCACGCGGAGTCACCTAGTGCAG | 8960 fluorescence intensity (a.u.) |
| CTCACTCTCTCACTGTTTCGTTCTCTCTCTCCCATTCTGTCGGAGTCACCTAGTGCAG | 11800 fluorescence intensity (a.u.) |
| CGAATCTTGATCTCTCTCTTTCATCGCCTCTTGTGTTCGCCGGAGTCACCTAGTGCAG | 8930 fluorescence intensity (a.u.) |
| TTCCACGCCCAACTTTGATCGTCTGTCTTATTTAAAAATTCGGAGTCACCTAGTGCAG | 8500 fluorescence intensity (a.u.) |
| CAATCACATATTTTGTTTGTAGATTTTGTTTATGTTATTTCGGAGTCACCTAGTGCAG | 8730 fluorescence intensity (a.u.) |

| Sequence | binding signal |
| --- | --- |
| TCTAGTGCATGATTGTGTTATTATATTGTTCTCAACTATACGGAGTCACCTAGTGCAG | 8300 fluorescence intensity (a.u.) |
| AGCTTCCGGACAAACCAGCCAATGCAAACTTCATTTGTACCGGAGTCACCTAGTGCAG | 8860 fluorescence intensity (a.u.) |
| GCTGAGCTCCTACCCTCCAATGCCGTCCATCTCCATGTCCCGGAGTCACCTAGTGCAG | 9910 fluorescence intensity (a.u.) |
| CATGCGTTAATAGTTTATCTCGTTTTACTTACCTTCTCAACGGAGTCACCTAGTGCAG | 9460 fluorescence intensity (a.u.) |
| GCCGGCTTCTCCATTGTCTCGCCGATCCGGCCGGAAAAACCGGAGTCACCTAGTGCAG | 9480 fluorescence intensity (a.u.) |
| TTAATCATGCGCTAATCAATTGTGCAGTTTTACGTACACTCGGAGTCACCTAGTGCAG | 8500 fluorescence intensity (a.u.) |
| GGTTTTAGCATCAGTTGTTGTTGTTTCTGACCTGATCAGACGGAGTCACCTAGTGCAG | 9640 fluorescence intensity (a.u.) |
| CCTAGGTAGTTCAATAGTAGTTATGTTTTCTGGCGGCGACCGGAGTCACCTAGTGCAG | 8580 fluorescence intensity (a.u.) |
| AGAGGAGGGGATGAACAAGGGCAGTATGATCCAAGAAAAACGGAGTCACCTAGTGCAG | 8120 fluorescence intensity (a.u.) |
| ACACTTTGACAGACAGTATCACTCGTATACAGACAACTTCCGGAGTCACCTAGTGCAG | 11000 fluorescence intensity (a.u.) |
| TTCTTTTTTTTTTATCTCTATTGCCTGGACTCTTCAAGTGCGGAGTCACCTAGTGCAG | 9400 fluorescence intensity (a.u.) |
| GTGTAACTTTTGGTTTTTATGCTTCCTGTAGGTCACAGTTCGGAGTCACCTAGTGCAG | 8530 fluorescence intensity (a.u.) |
| CGTGGCTTATGTATTCTAGTGGATTTTGCTTCTAGCCTACCGGAGTCACCTAGTGCAG | 9180 fluorescence intensity (a.u.) |
| ACTAGTATTTCTCTCTCTCTCTCTTTTTTTTCTGCGATGACGGAGTCACCTAGTGCAG | 9230 fluorescence intensity (a.u.) |
| TGTTTTTTTTCCTCTTTCGCTTGATTGTCCTATTGGATTTCGGAGTCACCTAGTGCAG | 8720 fluorescence intensity (a.u.) |
| ACGCCGTTGATTTTTTTAAGCGTATTTGATCGTTCGTCTTCGGAGTCACCTAGTGCAG | 8580 fluorescence intensity (a.u.) |
| TCTGTCTCCAACTCCTCGCCATGTCGTGTCGGCTGCTGTCCGGAGTCACCTAGTGCAG | 8780 fluorescence intensity (a.u.) |
| TCTTGCAGCCTTCCCTGTTGACGCGGTTGATGTTCTTCTACGGAGTCACCTAGTGCAG | 8280 fluorescence intensity (a.u.) |
| TCCAATTTCATCCAACTCAGCTATAGCTTTCTTTGCACCTCGGAGTCACCTAGTGCAG | 11000 fluorescence intensity (a.u.) |
| CATTGCCGTTAACTTCTTCACGTTCACAACTCACTGGGGTCGGAGTCACCTAGTGCAG | 9020 fluorescence intensity (a.u.) |
| GTAGGTTGGTTTTTTATGGGACGGAGGGAGTAGCCATTTACGGAGTCACCTAGTGCAG | 10200 fluorescence intensity (a.u.) |

No new results follow: an excerpt of the list.

| Sequence | binding signal |
| --- | --- |
| CGTGGCTTATGTATTCTAGTGGATTTTGCTTCTAGCCTACCGGAGTCACCTAGTGCAG | 9180 fluorescence intensity (a.u.) |
| ACTAGTATTTCTCTCTCTCTCTCTTTTTTTTCTGCGATGACGGAGTCACCTAGTGCAG | 9230 fluorescence intensity (a.u.) |
